PubChem BioAssay AID720505, Drosophila RNAi Screening Center – 2013
Purpose: 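Genes needed for store-operated calcium entry in fly cells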 (primary screen). Cells: Drosophila S2R+ cells. Knock-down reagent: long dsRNA against Drosophila genes. Challenge: thapsigargin (2 µM) in calcium-free buffer to empty internal stores, then 2 mM calcium added back. Measurement: 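Stores emptied by 2 µM thapsigargin without calcium, then 2 mM calcium re-added; fluo-4 fluorescence followed by FLIPR in 384-well plates, per-well averaged endpoint, raw; two screen passes, some wells retested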. Direction: calcium signal and retest calcium signal: higher = more calcium entry after store depletion. Hit rule: 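Knock-downs counted as hits when calcium entry dropped relative to STIM1 positive and Rho1 negative controls present on each plate; roughly 1500 genes called, with reductions of differing size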. Calls: active = called as lowering calcium entry; inactive = not called.
In all, the deposit lists about 20,000 reagents; shown is an unselected part of those with a known target gene and a result. Of all reagents, about 2,100 (10%) were called active. 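Raw plate signals without normalisation; calls rest on control-based scores that were not deposited; replicate 2 separates called from uncalled poorly.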 Names joined by + are all predicted targets of the reagent. The record does not give: the amount of reagent, the time to read-out.

no.	gene	DRSC id	calcium signal, replicate 1	calcium signal, replicate 2	retest calcium signal, replicate 1	retest calcium signal, replicate 2	activity call
1	CG14323	DRSC14802	127	160			inactive
2	Naa60	DRSC10301	99.8	108			inactive
3	vari	DRSC03202	173	103			inactive
4	Sry-delta	DRSC16869	101	117			inactive
5	CG9399	DRSC16488	170	127			inactive
6	CG43736	DRSC18370	298	147			inactive
7	CG43736	DRSC18371	236	120			inactive
8	ind	DRSC11355	110	195			inactive
9	ind	DRSC23095	155	149			inactive
10	Gyc89Db	DRSC15009	155	208			inactive
11	Srg1	DRSC14640	106	132			inactive
12	l(2)SH0834	DRSC02854	199	129			inactive
13	Ube3a	DRSC10600	144	88.2			inactive
14	Ranbp16 + Lcch3	DRSC20257	155	118			inactive
15	st	DRSC11399	97.8	90.7			inactive
16	CheA7a	DRSC17965	63.9	247			active
17	PolA2	DRSC16641	143	157			inactive
18	CG8476	DRSC16426	104	147			inactive
19	lt	DRSC03759	194	122			inactive
20	lbk	DRSC07178	201	156			inactive
21	CG42404	DRSC15558	120	196			inactive
22	CG4408	DRSC15574	195	324			inactive
23	Baldspot	DRSC09671	113	172			inactive
24	DppIII	DRSC16241	88.4	93.1			inactive
25	CG12498	DRSC18635	109	141			inactive
26	Lcch3	DRSC22175	91.4	235			inactive
27	CG10553	DRSC14254	241	126			inactive
28	CG4282	DRSC06865	147	95			inactive
29	Dscam4	DRSC08913					inactive
30	Dscam4	DRSC10031	67.9	50.5			inactive
31	Dscam4	DRSC10329	62.7	39.5			active
32	Dscam4	DRSC10765	102	86.5			inactive
33	Alp1	DRSC11781	121	88.7			inactive
34	ckn	DRSC06149	140	143			inactive
35	CG7071 + Muted	DRSC16189	196	177			inactive
36	CG9928	DRSC03274	123	88			inactive
37	OSCP1	DRSC06304	83.8	105			inactive
38	Usf	DRSC18129	156	118			inactive
39	Tgi	DRSC09793	101	80			inactive
40	Tgi	DRSC09794	54.9	88.3			active
41	Prosap	DRSC06382	120	188			inactive
42	Prosap	DRSC07081	255	158			inactive
43	CG15005	DRSC08459	102	112			inactive
44	CG13970	DRSC02311	95.1	127			inactive
45	CG2750	DRSC19867	110	85.8	89.5	167	inactive
46	CG9393	DRSC16486	84.9	157			inactive

10 of these entries, set out differently:
| gene | DRSC id | calcium signal, replicate 1 | calcium signal, replicate 2 | retest calcium signal, replicate 1 | retest calcium signal, replicate 2 | activity call |
| --- | --- | --- | --- | --- | --- | --- |
| Dscam4 | DRSC08913 | – | – | – | – | inactive |
| Dscam4 | DRSC10031 | 67.9 | 50.5 | – | – | inactive |
| Dscam4 | DRSC10329 | 62.7 | 39.5 | – | – | active |
| Dscam4 | DRSC10765 | 102 | 86.5 | – | – | inactive |
| Alp1 | DRSC11781 | 121 | 88.7 | – | – | inactive |
| ckn | DRSC06149 | 140 | 143 | – | – | inactive |
| CG7071 + Muted | DRSC16189 | 196 | 177 | – | – | inactive |
| CG9928 | DRSC03274 | 123 | 88 | – | – | inactive |
| OSCP1 | DRSC06304 | 83.8 | 105 | – | – | inactive |
| Usf | DRSC18129 | 156 | 118 | – | – | inactive |

Next records follow:
no.	gene	DRSC id	calcium signal, replicate 1	calcium signal, replicate 2	retest calcium signal, replicate 1	retest calcium signal, replicate 2	activity call
47	Fsn	DRSC06875	162	132			inactive
48	CG33181	DRSC17971	245	98.6			inactive
49	CG33181	DRSC22376	98.1	165			inactive
50	CG12395	DRSC19453	100	87.8			inactive
51	CG14931	DRSC02413	199	135			inactive
52	CG11999	DRSC12185	99.9	114			inactive
53	Lim1	DRSC17752	111	90.8			inactive
54	Lim1	DRSC18677	67.5	190	6483	142	active
55	CCT1	DRSC16877	124	202			inactive
56	dpr7	DRSC17109					inactive
57	CG12299	DRSC02158	81.9	94			inactive
58	CG34457	DRSC06924	150	134			inactive
59	eIF4H2	DRSC14582	109	163			inactive
60	CG10713	DRSC09786	83.1	103			inactive
61	CG8668	DRSC03101	130	216			inactive
62	CG43345 + CG43346	DRSC03164	111	95.8			inactive
63	CG12239	DRSC17832	152	86.9			inactive
64	Dlic	DRSC19824	124	78.8			inactive
65	spen	DRSC00839	43.4	137			active
66	Cyp6a19	DRSC07379	134	87.6			inactive
67	Stip1	DRSC00756	92.3	196			inactive
68	CG13907	DRSC08377	107	112			inactive
69	CG16978	DRSC02553	138	89.2			inactive
70	Vha16-5	DRSC02986	77.1	120			active
71	Rh4	DRSC11268	118	186	114	93	inactive
72	Polr2L	DRSC14630	235	171			inactive
73	pdm2	DRSC02496	131	107			inactive
74	pdm2	DRSC02497	121	109			inactive
75	pdm2	DRSC03587	65.5	77.5			active
76	ppk22	DRSC22093	95.8	204			inactive
77	CG16790	DRSC15156	176	132			inactive
78	CG32811	DRSC22649	77.8	201			inactive
79	CG32982	DRSC01059	222	91.2			inactive
80	CG32982	DRSC02677	118	95.9			inactive
81	CG32982	DRSC03268	124	153	71	87	inactive
82	CG32982	DRSC03269	225	164			inactive
83	CG32982	DRSC21912	62.5	182			inactive
84	sa	DRSC11649	56.7	196	7881	146	active
85	Cmpk	DRSC16643	105	174			inactive
86	CG13724	DRSC10053	89	164			inactive
87	CG14795	DRSC18513	92.5	129			inactive
88	CG12783	DRSC14538	108	124			inactive
89	Cdlc2	DRSC00743	170	324			inactive
90	CR32733 + CG32797	DRSC17705	8723	131			inactive
91	Polr3C	DRSC14490	115	114			inactive
92	CG31064	DRSC14756	157	153			inactive
93	CG31064	DRSC15941	153	158			inactive
94	CG31064	DRSC15942	174	125			inactive
95	CG31064	DRSC15943	168	139			inactive
96	CG31924	DRSC00689	180	137			inactive
97	CG15531	DRSC15068	84.6	85.9			inactive
98	Phae2	DRSC02555	104	105			inactive
99	RpS28a	DRSC15064	185	153			inactive
100	CG15111	DRSC21467	137	84.2			inactive
101	CG30428	DRSC04041	88.4	118			inactive
102	CG12684	DRSC17875	218	119			inactive
103	dia	DRSC03519	122	111			inactive
104	udt	DRSC14214	128	158			inactive
105	CG43088	DRSC19055	82.3	104			inactive
106	CG43088	DRSC21407	191	104			inactive
